Among the data in article PMC8630059 are binding values, retold here.

Amino acid sequences for entries named in this document (tags omitted).
UniProt Q96EB6: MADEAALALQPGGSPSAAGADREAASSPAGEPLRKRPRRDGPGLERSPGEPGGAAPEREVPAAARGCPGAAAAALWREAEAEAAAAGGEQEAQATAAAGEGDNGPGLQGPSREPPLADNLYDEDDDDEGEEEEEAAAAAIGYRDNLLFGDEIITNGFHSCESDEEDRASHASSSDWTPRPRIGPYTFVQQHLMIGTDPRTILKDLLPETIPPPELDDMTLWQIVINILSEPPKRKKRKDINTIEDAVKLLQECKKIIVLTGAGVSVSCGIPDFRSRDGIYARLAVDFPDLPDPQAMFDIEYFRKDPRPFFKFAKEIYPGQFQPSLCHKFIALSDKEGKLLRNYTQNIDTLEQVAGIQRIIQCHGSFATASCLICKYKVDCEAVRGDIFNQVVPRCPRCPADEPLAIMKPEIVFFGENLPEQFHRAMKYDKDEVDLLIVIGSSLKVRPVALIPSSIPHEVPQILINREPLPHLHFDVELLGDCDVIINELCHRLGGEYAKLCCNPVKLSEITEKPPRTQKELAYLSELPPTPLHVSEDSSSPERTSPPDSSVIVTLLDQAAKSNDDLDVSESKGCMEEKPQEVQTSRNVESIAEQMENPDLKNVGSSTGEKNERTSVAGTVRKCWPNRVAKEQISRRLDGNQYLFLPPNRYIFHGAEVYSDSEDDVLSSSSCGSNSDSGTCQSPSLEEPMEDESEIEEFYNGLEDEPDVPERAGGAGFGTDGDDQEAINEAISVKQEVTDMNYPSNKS
UniProt O75530: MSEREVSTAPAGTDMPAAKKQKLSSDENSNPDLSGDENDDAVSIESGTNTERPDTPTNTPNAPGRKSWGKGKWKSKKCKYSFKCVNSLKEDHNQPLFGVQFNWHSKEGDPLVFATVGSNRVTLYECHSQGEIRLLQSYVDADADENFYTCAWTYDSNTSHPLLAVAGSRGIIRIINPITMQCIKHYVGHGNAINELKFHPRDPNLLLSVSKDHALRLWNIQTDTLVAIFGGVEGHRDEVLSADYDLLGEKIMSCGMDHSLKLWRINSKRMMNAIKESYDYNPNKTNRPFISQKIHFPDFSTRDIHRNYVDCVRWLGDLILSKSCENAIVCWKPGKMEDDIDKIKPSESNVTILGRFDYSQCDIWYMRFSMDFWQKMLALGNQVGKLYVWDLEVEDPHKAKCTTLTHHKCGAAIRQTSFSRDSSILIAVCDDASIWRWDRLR
UniProt Q16531: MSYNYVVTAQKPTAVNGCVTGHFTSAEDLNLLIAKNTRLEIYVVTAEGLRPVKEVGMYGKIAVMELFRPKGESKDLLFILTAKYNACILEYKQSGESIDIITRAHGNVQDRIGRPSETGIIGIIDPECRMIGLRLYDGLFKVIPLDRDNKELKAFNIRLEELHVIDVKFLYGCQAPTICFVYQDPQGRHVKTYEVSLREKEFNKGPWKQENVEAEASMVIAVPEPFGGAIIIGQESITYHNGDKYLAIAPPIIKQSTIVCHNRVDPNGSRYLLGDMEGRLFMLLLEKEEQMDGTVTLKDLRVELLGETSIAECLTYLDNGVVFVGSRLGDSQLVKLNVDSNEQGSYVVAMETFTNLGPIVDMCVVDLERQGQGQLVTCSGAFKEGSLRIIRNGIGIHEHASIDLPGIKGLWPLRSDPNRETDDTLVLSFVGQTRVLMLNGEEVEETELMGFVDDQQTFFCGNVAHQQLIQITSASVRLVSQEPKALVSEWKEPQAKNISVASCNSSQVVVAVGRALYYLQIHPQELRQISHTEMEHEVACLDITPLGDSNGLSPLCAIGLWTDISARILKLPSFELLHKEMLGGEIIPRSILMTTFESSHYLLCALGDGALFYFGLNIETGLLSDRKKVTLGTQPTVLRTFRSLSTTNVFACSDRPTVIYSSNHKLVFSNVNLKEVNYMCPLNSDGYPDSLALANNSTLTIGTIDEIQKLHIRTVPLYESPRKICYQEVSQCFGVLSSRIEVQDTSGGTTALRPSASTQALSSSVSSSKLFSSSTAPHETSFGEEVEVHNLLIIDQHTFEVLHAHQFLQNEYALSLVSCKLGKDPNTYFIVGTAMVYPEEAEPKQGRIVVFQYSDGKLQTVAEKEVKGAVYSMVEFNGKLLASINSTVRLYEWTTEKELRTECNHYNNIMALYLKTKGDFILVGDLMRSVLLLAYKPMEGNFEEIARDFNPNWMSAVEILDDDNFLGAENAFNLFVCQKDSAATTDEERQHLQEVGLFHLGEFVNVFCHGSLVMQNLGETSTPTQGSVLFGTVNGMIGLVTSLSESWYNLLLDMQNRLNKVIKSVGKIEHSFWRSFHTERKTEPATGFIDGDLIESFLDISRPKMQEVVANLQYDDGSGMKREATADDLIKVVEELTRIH
UniProt Q13547: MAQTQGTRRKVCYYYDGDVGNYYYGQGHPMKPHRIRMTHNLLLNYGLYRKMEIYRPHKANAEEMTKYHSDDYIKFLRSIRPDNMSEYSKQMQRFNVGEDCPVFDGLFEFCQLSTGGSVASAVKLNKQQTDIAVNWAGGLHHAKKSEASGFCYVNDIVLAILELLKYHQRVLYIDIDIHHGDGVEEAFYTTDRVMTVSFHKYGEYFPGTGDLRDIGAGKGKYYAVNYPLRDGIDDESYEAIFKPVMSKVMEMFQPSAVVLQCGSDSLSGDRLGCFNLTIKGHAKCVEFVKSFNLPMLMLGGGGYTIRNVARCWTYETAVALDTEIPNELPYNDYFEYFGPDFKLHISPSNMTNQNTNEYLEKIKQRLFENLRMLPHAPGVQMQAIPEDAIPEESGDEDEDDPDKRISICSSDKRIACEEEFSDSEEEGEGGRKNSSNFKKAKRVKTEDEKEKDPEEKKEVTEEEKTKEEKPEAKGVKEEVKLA
UniProt Q92769: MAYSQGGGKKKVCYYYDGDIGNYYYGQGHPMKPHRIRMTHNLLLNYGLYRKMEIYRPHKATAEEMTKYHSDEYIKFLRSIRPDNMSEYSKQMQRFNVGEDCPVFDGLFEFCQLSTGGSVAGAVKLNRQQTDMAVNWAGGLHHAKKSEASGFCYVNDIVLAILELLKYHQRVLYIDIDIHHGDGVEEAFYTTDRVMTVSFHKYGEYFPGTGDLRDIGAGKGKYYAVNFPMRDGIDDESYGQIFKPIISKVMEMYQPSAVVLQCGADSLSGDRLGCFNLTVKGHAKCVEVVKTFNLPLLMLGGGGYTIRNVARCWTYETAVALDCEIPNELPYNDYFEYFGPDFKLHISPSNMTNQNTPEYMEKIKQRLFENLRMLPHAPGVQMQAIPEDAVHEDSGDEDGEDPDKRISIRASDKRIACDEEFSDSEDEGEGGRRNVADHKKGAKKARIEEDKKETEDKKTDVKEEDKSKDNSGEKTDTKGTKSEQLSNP

B1: SAP30 (protein, UniProt O75446 1-220)
chain: MNGFTPDEMSRGGDAAAAVAAVVAAAAAAASAGNGTGAGTGAEVPGAGAVSAAGPPGAAGPGPGQLCCLREDGERCGRAAGNASFSKRIQKSISQKKVKIELDKSARHLYICDYHKNLIQSVRNRRKRKGSDDDGGDSPVQDIDTPEVDLYQLQVNTLRRYKRHFKLPTRPGLNKAQLVEIVGCHFRSIPVNEKDTLTYFIYSVKNDKNKSDLKVDSGVH

No constants are given. Whether binding was seen depends on the method and setting. Binding seen in cells or lysates may run through a third protein. A yes stands for co-enrichment or nearness to the bait. Other partners may have been found.

The experiment concerns the target FLAG-tagged SIRT1 (human) (UniProt Q96EB6). In words: affinity purification with mass spectrometry; whole-cell extracts of PANC-1 cells stably expressing FLAG-SIRT1 on anti-FLAG M2 affinity columns, eluted with FLAG peptide (0.2 mg/ml); SDS-PAGE, silver stain, LC-MS/MS of the bands.
Turning to EED (from UniProt O75530 1-441), the binding entry is on record as “binds”.

In the case of “DDB1 (endogenous) (from UniProt Q16531 1-1140)”, the binding result is on record as “binds”.

For the molecule “HDAC1 (from UniProt Q13547 1-482) (enzyme)”, the binding result was “binds”.

Regarding “HDAC2 (from UniProt Q92769 1-488) (enzyme)”, the binding result is “binds”.

Take B1: the binding entry was “binds”.
